# According to patent US20250340575A1, “4-AMINOPYRROLO[2,1-F][1,2,4]TRIAZINES AND PREPARATION AND USES THEREOF” (Biosplice Therapeutics, Inc., priority 2024, published 2025):
# The match of structure and compound is tentative.
# Target: recombinant DYRK1A kinase (Homo sapiens, UniProt Q13627)
# Test: DYRK1A kinase assay (Ser/Thr 18 peptide Z-lyte FRET)
# Conditions: DYRK1A 0.25 μg/mL, ATP 15 μM, Ser/Thr peptide 18 4 μM, one hour at room temperature, 11-point dose-response from 10 μM
compound,measurement,value
CC(=O)N1CC[C@@H](Nc2nc(N)c3c(-c4ccc5ncn(CC(F)(F)F)c5n4)ccn3n2)C(F)(F)C1,IC50,1.2 nM
